Article PMC6856647
No constants are given. Whether binding was seen depends on the method and setting. In cells and extracts the contact can be indirect.

Target: T1, ΔNp63α (UniProt Q9H3D4)
T1 sequence: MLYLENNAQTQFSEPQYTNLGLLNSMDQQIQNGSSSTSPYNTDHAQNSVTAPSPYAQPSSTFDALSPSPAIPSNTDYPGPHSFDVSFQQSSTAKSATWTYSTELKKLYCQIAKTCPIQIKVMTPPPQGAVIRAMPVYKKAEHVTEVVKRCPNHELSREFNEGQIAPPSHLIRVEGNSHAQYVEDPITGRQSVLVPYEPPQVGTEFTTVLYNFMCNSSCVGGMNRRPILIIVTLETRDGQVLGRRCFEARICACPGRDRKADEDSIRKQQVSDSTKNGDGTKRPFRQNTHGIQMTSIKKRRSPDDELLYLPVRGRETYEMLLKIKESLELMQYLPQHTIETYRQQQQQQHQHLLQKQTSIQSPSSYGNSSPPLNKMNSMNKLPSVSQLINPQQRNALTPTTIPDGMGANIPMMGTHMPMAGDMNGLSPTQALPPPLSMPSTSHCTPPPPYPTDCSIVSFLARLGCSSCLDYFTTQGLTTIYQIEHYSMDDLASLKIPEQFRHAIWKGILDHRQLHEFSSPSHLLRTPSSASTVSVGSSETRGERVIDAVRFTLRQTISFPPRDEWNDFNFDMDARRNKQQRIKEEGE
Test: co-IP; HCT116-p53(-/-) cells co-transfected with the indicated plasmids, MG132 10 uM for 4 h; lysed in RIPA buffer with 10% glycerol; immunoprecipitated with anti-p63 or anti-p53 (control); western blot

binding: no binding
B1: TRIM8 (protein, UniProt Q9BZR9 1-551)
chain: MAENWKNCFEEELICPICLHVFVEPVQLPCKHNFCRGCIGEAWAKDSGLVRCPECNQAYNQKPGLEKNLKLTNIVEKFNALHVEKPPAALHCVFCRRGPPLPAQKVCLRCEAPCCQSHVQTHLQQPSTARGHLLVEADDVRAWSCPQHNAYRLYHCEAEQVAVCQYCCYYSGAHQGHSVCDVEIRRNEIRKMLMKQQDRLEEREQDIEDQLYKLESDKRLVEEKVNQLKEEVRLQYEKLHQLLDEDLRQTVEVLDKAQAKFCSENAAQALHLGERMQEAKKLLGSLQLLFDKTEDVSFMKNTKSVKILMDRTQTCTSSSLSPTKIGHLNSKLFLNEVAKKEKQLRKMLEGPFSTPVPFLQSVPLYPCGVSSSGAEKRKHSTAFPEASFLETSSGPVGGQYGAAGTASGEGQSGQPLGPCSSTQHLVALPGGAQPVHSSPVFPPSQYPNGSAAQQPMLPQYGGRKILVCSVDNCYCSSVANHGGHQPYPRSGHFPWTVPSQEYSHPLPPTPSVPQSLPSLAVRDWLDASQQPGHQDFYRVYGQPSTKHYVTS
